The text below walks through data of publication PMC9314443.

The assay concerns the target T1, full-length hamster HMGCR followed by three copies of the T7 epitope, HMGCR-T7 (WT) (hamster) (UniProt P00347).
T1 sequence: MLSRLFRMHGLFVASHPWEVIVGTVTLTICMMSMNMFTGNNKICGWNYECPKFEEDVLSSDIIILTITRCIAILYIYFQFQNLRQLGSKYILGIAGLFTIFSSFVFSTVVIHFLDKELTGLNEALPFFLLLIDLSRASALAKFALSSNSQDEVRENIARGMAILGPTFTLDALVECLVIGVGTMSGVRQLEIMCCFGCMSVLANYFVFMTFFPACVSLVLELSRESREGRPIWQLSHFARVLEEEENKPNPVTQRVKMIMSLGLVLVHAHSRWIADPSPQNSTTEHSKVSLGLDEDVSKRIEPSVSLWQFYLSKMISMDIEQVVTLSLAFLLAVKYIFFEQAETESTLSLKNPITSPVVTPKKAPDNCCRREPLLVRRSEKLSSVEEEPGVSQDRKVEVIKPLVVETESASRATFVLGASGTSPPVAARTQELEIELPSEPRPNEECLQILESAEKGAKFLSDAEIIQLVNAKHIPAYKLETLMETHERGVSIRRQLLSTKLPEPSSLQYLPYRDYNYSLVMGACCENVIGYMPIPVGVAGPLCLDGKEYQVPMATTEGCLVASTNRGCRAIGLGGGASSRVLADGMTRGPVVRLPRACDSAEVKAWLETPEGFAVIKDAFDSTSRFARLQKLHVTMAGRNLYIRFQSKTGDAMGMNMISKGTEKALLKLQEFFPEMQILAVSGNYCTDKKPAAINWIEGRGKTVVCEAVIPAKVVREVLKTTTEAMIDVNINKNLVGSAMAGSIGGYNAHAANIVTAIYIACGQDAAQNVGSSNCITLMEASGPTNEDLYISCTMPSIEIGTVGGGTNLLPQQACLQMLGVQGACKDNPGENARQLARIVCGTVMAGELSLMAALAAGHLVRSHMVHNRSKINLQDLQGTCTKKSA
The assay is described as follows: co-IP; transfected HMGCR-deficient UT-2 (CHO) cells depleted of sterols, MG-132 for 1 h, then with or without 1 µg/ml 25-HC for 30 min; lysed in PBS with 1% digitonin, precipitated with anti-T7-coupled beads; immunoblot with anti-T7 and IgG-9E10. For orientation: In western blotting, separated proteins are transferred to a membrane and probed.

These are yes or no findings as the source states them, for the method shown. Binding seen in cells or lysates may run through a third protein. Some binding calls cover weakened binding; strength is not graded here. Sequences can lack the tags named with a protein.

B1: human Insig-1 followed by six copies of the Myc epitope (Insig-1-Myc) (protein, UniProt O15503 1-277)
chain: MPRLHDHFWSCSCAHSARRRGPPRASAAGLAAKVGEMINVSVSGPSLLAAHGAPDADPAPRGRSAAMSGPEPGSPYPNTWHHRLLQRSLVLFSVGVVLALVLNLLQIQRNVTLFPEEVIATIFSSAWWVPPCCGTAAAVVGLLYPCIDSHLGEPHKFKREWASVMRCIAVFVGINHASAKLDFANNVQLSLTLAALSLGLWWTFDRSRSGLGLGITIAFLATLITQFLVYNGVYQYTSPDFLYIRSWLPCIFFSGGVTVGNIGRQLAMGVPEKPHSD
Consider B1, for which the binding entry is on record as “binds”.
